From ChEMBL document CHEMBL3988442, “University of Dundee, Small-Polar-MMV Screening Library” (2021).

Sequences of proteins named here, by UniProt entry; tags and fusion partners are left off. Residues count along the entry.
UniProt A4I591, 1-473: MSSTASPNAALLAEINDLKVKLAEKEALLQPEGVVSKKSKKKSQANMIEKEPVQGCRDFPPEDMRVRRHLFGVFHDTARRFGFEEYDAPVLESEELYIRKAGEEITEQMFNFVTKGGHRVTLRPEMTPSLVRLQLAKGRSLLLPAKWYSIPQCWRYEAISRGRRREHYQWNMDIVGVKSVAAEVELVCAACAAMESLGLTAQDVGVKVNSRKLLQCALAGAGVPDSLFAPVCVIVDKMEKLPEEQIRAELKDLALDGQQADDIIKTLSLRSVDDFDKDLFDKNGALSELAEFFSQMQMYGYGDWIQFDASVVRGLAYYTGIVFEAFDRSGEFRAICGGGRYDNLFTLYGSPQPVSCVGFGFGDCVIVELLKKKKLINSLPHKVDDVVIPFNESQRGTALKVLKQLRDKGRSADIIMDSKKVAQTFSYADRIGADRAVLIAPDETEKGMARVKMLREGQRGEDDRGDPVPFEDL
UniProt P9WFT3, whole entry: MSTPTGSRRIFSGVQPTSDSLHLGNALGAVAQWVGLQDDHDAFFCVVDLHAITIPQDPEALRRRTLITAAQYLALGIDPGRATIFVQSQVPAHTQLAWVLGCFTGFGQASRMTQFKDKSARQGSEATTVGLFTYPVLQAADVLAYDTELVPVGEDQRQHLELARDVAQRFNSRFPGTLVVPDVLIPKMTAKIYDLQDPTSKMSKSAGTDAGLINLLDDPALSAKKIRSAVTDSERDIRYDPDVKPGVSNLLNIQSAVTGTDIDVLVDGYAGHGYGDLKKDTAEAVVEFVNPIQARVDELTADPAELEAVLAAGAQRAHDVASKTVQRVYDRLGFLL
UniProt P9WNZ1, whole entry: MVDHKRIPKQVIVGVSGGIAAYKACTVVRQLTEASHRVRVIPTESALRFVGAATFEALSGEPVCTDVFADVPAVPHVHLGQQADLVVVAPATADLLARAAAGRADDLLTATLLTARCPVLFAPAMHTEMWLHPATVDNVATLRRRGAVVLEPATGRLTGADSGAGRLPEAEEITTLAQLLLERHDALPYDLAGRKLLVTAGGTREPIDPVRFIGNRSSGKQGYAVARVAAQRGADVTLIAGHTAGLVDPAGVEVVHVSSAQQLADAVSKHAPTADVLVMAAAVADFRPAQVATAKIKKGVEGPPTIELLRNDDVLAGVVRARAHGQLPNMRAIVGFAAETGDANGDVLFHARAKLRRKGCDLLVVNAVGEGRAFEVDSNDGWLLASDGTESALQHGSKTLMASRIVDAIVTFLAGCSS

Values are the deposited “Percent Effect”, in %. The controls that fix the scale are not given in the record; negative values are as filed. Compounds were drawn at random from those tested, without regard to their results. A dash means the value is not listed here; it may have been measured.

LiHisRS: 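Histidine-tRNA ligase, Leishmania infantum (UniProt A4I591). Enzyme assay of histidyl-tRNA synthetase; the read-out is not stated. Tested at 30 µM. Direction is inferred from retests: higher values go with stronger inhibition. The assay is labelled LdHisRS but filed under L. infantum. About 69,000 compounds were tested under these conditions; 0.6% (about 410) showed 50% or more at least once.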
MtTrpRS: 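Enzyme assay of tryptophanyl-tRNA synthetase; the read-out is not stated. Target: Tryptophan-tRNA ligase, Mycobacterium tuberculosis (UniProt P9WFT3). Compounds at 10 µM. Direction is not recorded; retested compounds ran higher, which suggests that high means inhibition. Size under these conditions: about 65,000 compounds, about 64 of them at 50% or above in at least one test.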
CoaBC: 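Enzyme assay of CoaBC with a phosphate dye (Biomol Green) read at 650 nm. Target: Coenzyme A biosynthesis protein CoaBC, Mycobacterium tuberculosis (UniProt P9WNZ1). Concentration: 30 µM. Higher reads as stronger inhibition, judged from the few compounds that gave an IC50. Most strong results did not repeat in a second test. About 67,000 compounds were tested under these conditions; 0.06% (about 40) showed 50% or more at least once.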

SMILES | LiHisRS | MtTrpRS | CoaBC
O=C1NC2(CCNCC2)CC1c1cccnc1 (stereo unspecified) | 10.95 | -2.291 | 7.254
COCC(=O)N1CCCC(C(=O)N(C)CCn2ccnc2C)C1 (stereo unspecified) | 4.918 | 3.221 | -10.17
Cc1cnc(CN2CCCC2c2noc(C(C)C)n2)cn1 (stereo unspecified) | 10.71 | 15.7 | 0
CCc1nc(C2CCCN2C(=O)c2cc3c(s2)CCC3)no1 (stereo unspecified) | 20 | -8.914 | 3.061
Cn1cc(-c2nnn3c2COC(CNCc2cccnc2)C3)cn1 (stereo unspecified) | 9.735 | -0.7538 | 12.1
Cc1cc(C)n(C2CCCN(C(=O)CCOc3cccc(F)c3)C2)n1 (stereo unspecified) | 8.547 | -3.01 | -3.217
O=C1C(N2CCOC3(CCCC3)C2)CCN1C1CC1 (stereo unspecified) | 10.96 | 2.77 | 10.36
CN1CCCNC(=O)C12CCN(C(=O)c1ccc3[nH]cnc3c1)CC2 | 16.39 | 4.026 | 9.74
N#Cc1ccc(F)c(CN2CCNC(=O)C2c2cccs2)c1 (stereo unspecified) | 0 | 0.4167 | 8.193
COc1ccccc1N1CCC(CNCc2cccc(C#N)c2)C1 (stereo unspecified) | 35.71 | -3.678 | 0.3559
Cc1cc(Cc2cccc(C(F)(F)F)c2)cc(C2CCCNC2)n1 (stereo unspecified) | 21.43 | 2.326 | 5.583
CC(C)C(CCO)NC(=O)Nc1ccc(-c2csnn2)cc1 (stereo unspecified) | 19.47 | 1.224 | 2.39
CCCn1nccc1-c1cnc(CC2CCN(C(C)=O)C2)cn1 (stereo unspecified) | 15.71 | -1.903 | -2.184
CCC1c2ccsc2CCN1C(=O)NCc1cccnc1N(C)C (stereo unspecified) | 15.74 | 12.97 | 6.579
Cc1ncsc1CN1C[C@H](C(=O)NCC2CC2)[C@@H]2CCO[C@@H]2C1 | 20.97 | -1.351 | -3.083
COc1ccccc1CN(Cc1nc(C)no1)C1CC1 | 8.434 | 2.754 | 3.639
Cc1ccc(OCCCNC(=O)C2(C)CC(=O)N3C=CC=CC3=N2)cc1 (stereo unspecified) | 10.74 | -5.783 | -0.6849
COCCC1(CO)CCCN(C(=O)CCC(F)(F)F)C1 (stereo unspecified) | 4.082 | 3.84 | -6.429
CC(Cc1ccc(Cl)cc1)N(C)C(=O)NCCS(C)(=O)=O (stereo unspecified) | -2.655 | -0.4599 | -6.776
Cc1cnn(CC2CCCCN2C(=O)c2sccc2C#N)c1 (stereo unspecified) | 10.26 | -7.637 | 3.419
Cc1nc2[nH]cnc(NCCN3CCCC3)c-2n1 | 23.08 | 7.314 | 1.446
CC(C)NC(=O)Nc1cccc2c1CCN(S(C)(=O)=O)C2 | 4.464 | 0.9413 | 0
O=C(NCC1CCCO1)c1cc(-c2cccnc2)c2cnccc2n1 (stereo unspecified) | 7.143 | 2.185 | -1.214
Cc1cnc(CCNC(Cc2ccncc2)C(F)(F)F)s1 (stereo unspecified) | 11.43 | 1.961 | -
CCOc1cc(NC(=O)C2CC(=O)N(c3cccc(OC)c3)C2)ncn1 (stereo unspecified) | 17.39 | -0.07598 | -5.285
CCC(O)CN1CCN(C(=O)c2cccc(CC#N)c2)CC1 (stereo unspecified) | 7.143 | -1.428 | -3.409
CNc1ccnc(N2CCCC(C(=O)c3ccccn3)C2)n1 (stereo unspecified) | -3.226 | -0.07097 | 0.369
C1CCC(CNC2CCSCC2)(N2CCOCC2)CC1 | 9.6 | 1.806 | 0.2439
CC(C)c1nc(CNc2ccc(CCO)cc2)cs1 | 16.44 | -2.006 | 9.163
COCCn1cc(C(=O)N2CCCC2c2cccc(C)c2)ccc1=O (stereo unspecified) | 4.839 | -4.464 | 0.489
Cc1cnn(C2CCCN(C(=O)c3c(C)oc(C)c3C)C2)c1 (stereo unspecified) | 17.14 | -5.057 | -
Cc1cc(C)n(CC2CCCCN2CC(=O)Nc2c(C)n[nH]c2C)n1 (stereo unspecified) | 9.917 | 2.033 | 4.12
CCCS(=O)(=O)c1ccc(N2CCC(Cc3ccccc3)CC2)nn1 | 10.43 | 0.228 | 6.977
COc1ccc(-c2csc3c2c(N)nc(=O)n3CCN(C)C)cc1 | 18.42 | 6.653 | -0.2525
CSc1ncccc1C(=O)NC(C)c1cccc(N2CCOC2=O)c1 (stereo unspecified) | 17.78 | -1.67 | 2.19
O=C(CCc1ccccc1F)N1CCC(Nc2cccnn2)CC1 | 16.96 | -3.742 | 3.448
O=C(NCC1COCc2c(-c3ccncc3)nnn2C1)[C@H]1CCCO1 (stereo partly specified) | 24 | -1.647 | 0.2049
CN(C)C(=O)[C@@H]1CCO[C@@H]2CCN(CCc3ccccc3)C[C@@H]21 | 21.15 | -1.689 | 1.863
CC(c1ccco1)N(C(=O)CNc1ccc(C#N)cc1)C1CC1 (stereo unspecified) | 9.211 | -1.554 | -1.935
O=C(c1ccc(=O)[nH]n1)N1CCc2ccccc21 | 15.15 | -7.818 | 1.691
O=C1CCN(C(=O)c2csc(-c3ccc(C(F)(F)F)cc3)n2)CCN1 | 14.75 | -1.586 | 0.1196
CN(C)CC1CN(CC(=O)N2CCc3ccccc32)CCO1 (stereo unspecified) | 21.92 | 2.23 | 4.091
Cc1ccccc1CNc1ccccc1OCC(=O)N1CCOCC1 | 17.07 | 0.1485 | 0.1272
CNS(=O)(=O)c1cccc(C(C)NCc2ccco2)c1 (stereo unspecified) | 4.464 | -1.906 | 7.143
Cn1cc(C2CC(=O)NC23CCN(C(=O)C2CC=CC2)CC3)cn1 (stereo unspecified) | -1.389 | 6.826 | -15.91
Cc1cc(=O)n2ncnc2n1CC(O)c1ccccc1Cl (stereo unspecified) | 14.29 | -4.979 | 2.564
Cc1cc(O)nc(C2CN(CCO)CCO2)n1 (stereo unspecified) | 4.828 | 10.98 | 5.315
Cc1cc(CN(C)C(=O)NCc2ccnc(OC3CCCC3)c2)no1 | 22.22 | -3.888 | 7.143
O=C([C@@H]1CCO[C@@H]2CCN(Cc3ccc(F)cc3)C[C@H]21)N1CCCCO1 | 23.08 | -2.213 | 10.28
OCC1(O)CCCN(Cc2noc(-c3ccccc3)n2)CC1 (stereo unspecified) | 0 | 22.71 | -1.235
O=C(c1cnccn1)N1CC[C@H]2[C@@H]1CCC(=O)N2c1cccnc1 | 19 | -1.592 | 2.349
Cc1nc(-c2nnc[nH]2)sc1C(=O)N1CCCC(C(F)(F)F)C1 (stereo unspecified) | 18.57 | -2.708 | -8.402
CC(=O)N1CC[C@H]2OCC[C@@H](C(=O)Nc3cccnc3C)[C@H]2C1 | 5.769 | - | 1.818
O=C(c1cc(F)ccc1F)C1CCN(C(=O)c2cnccn2)CC1 | 2.655 | -7.9 | 2.611
COCCN(CC1CC1)c1nc(CCN)nc2sc(C)c(C)c12 | 32.74 | -1.256 | -30.79
Cn1nc2c(cc1=O)CN(CC(=O)Nc1nccs1)CC2 | 48.21 | 3.518 | 5.434
CO[C@@H]1CC[C@@H](N(C)C(=O)c2cn3cc(C)ccc3n2)[C@H]1O | 4.317 | -1.042 | -9.569
Cc1cc(N2CC[C@H](O)C2)n2nc(C)c(C)c2n1 | 19.35 | 0.2694 | 2.788
Cn1nnnc1SCC(=O)N1CCN(C(=O)C2CC2c2cccs2)CC1 (stereo unspecified) | 12.9 | -0.9167 | 11.11
CC(=O)N1CCN(Cc2ccc(F)cc2)CC2(CC(=O)N(C)C2)C1 (stereo unspecified) | 21.1 | 1.493 | 0.7059
CSCCC(=O)NCc1cc2n(n1)CCN(C(=O)N(C)C)C2 | 20.55 | 2.49 | 8.32
Cc1noc(C)c1CN1CCOCC12CCN(c1nccs1)CC2 | 15.32 | - | 3.218
CC(C)c1nc(CN(C)C(=O)Cn2nc3ccccc3n2)no1 | 11.43 | 0.7224 | -